Laboratory results published in paper PMC9613726.
For at least one entry, the source does not settle the construct or the ends of the probe. For part of these data: A negative result means that nothing was seen under these conditions.

Key:
[1] = system: GST-CsMYC2 (Camellia sinensis); assay: EMSA; settings: LightShift Chemiluminescent EMSA Kit (ThermoFisher) per manufacturer, pH and temperature not stated, recombinant protein, protein details: N-terminal GST, label: 3'-biotin
[2] = system: GST-CsHDA2 (Camellia sinensis); assay: EMSA; settings: LightShift Chemiluminescent EMSA Kit (ThermoFisher) per manufacturer; pH and temperature not stated; recombinant protein; protein details: N-terminal GST; label: 3'-biotin

**Q.** Which results are given for “CTACTTTCATGTGATTCTATGTTCAACTCTCCCAAGCAACATACTTACGAAAATTTTCTTGCCATTTGACAAAATG (double strand) [CsNES promoter E-box probe]”?
**A.** binding result [1]: binds; binding result ([1]; increasing GST-CsHDA2 added, CsMYC2 binding unchanged): binds; binding result [2]: no binding
